Measurements reported in PubChem BioAssay AID602196 (INSERM, 2012).
Aim: 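Modifiers of cisplatin sensitivity in A549 cells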. Cell system: human A549 lung cancer cells. Reagents: siRNA pair against human genes. Timing: 48 h transfection before cisplatin; time from cisplatin to read-out not stated. Treatment: cisplatin at a dose killing half of control-siRNA cells; exact dose and duration not given. Measurement: 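Cisplatin cell death as a shift from the 50% death seen with control siRNA; siRNAs toxic or growth-blocking alone scored 0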. Direction: two-siRNA summed score (-2 to +2): higher = both siRNAs protect from cisplatin killing; -2 means both sensitise; mean protection from cisplatin (shift in death): higher = protection from cisplatin killing. Active means: 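siRNAs harmful alone (LDH or WST-1) get 0; others get +1 for less and -1 for more cisplatin killing; genes are active when the two siRNAs give the same sign, summing to ±2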. Calls: active = both siRNAs shift cisplatin killing the same way; inactive = no consistent shift, or siRNA harmful alone.
This is an unselected part of about 23,000 deposited reagents. In the full data, 455 (2%) were called active. 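Active includes both protection and sensitisation; some change values fall well beyond the stated -50 to +50 range.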 Further read-outs or replicates are left out here. Not stated in the record: the amount of reagent.

{"gene symbol": "RBMXL3", "two-siRNA summed score (-2 to +2)": 0, "mean protection from cisplatin (shift in death) (%)": -2.6, "call": "inactive"}
{"gene symbol": "SUCLG1", "two-siRNA summed score (-2 to +2)": 1, "mean protection from cisplatin (shift in death) (%)": 13.5, "call": "inactive"}
{"gene symbol": "CNTN6", "two-siRNA summed score (-2 to +2)": 0, "mean protection from cisplatin (shift in death) (%)": -0.8, "call": "inactive"}
{"gene symbol": "POLR1E", "two-siRNA summed score (-2 to +2)": 0, "mean protection from cisplatin (shift in death) (%)": -0.5, "call": "inactive"}
{"gene symbol": "TAF5", "two-siRNA summed score (-2 to +2)": 0, "mean protection from cisplatin (shift in death) (%)": 9.9, "call": "inactive"}
{"gene symbol": "LOC342599", "two-siRNA summed score (-2 to +2)": 0, "mean protection from cisplatin (shift in death) (%)": 9.6, "call": "inactive"}
{"gene symbol": "DEFB108B", "two-siRNA summed score (-2 to +2)": 0, "mean protection from cisplatin (shift in death) (%)": 18.8, "call": "inactive"}
{"gene symbol": "BMP2KL", "two-siRNA summed score (-2 to +2)": 0, "mean protection from cisplatin (shift in death) (%)": 13.6, "call": "inactive"}
{"gene symbol": "BOC", "two-siRNA summed score (-2 to +2)": 0, "mean protection from cisplatin (shift in death) (%)": 6.2, "call": "inactive"}
{"gene symbol": "GFI1", "two-siRNA summed score (-2 to +2)": -1, "mean protection from cisplatin (shift in death) (%)": -19.8, "call": "inactive"}
{"gene symbol": "LOC442730", "two-siRNA summed score (-2 to +2)": 1, "mean protection from cisplatin (shift in death) (%)": 8.3, "call": "inactive"}
{"gene symbol": "ADCYAP1", "two-siRNA summed score (-2 to +2)": -1, "mean protection from cisplatin (shift in death) (%)": -4, "call": "inactive"}
{"gene symbol": "KIR2DL1", "two-siRNA summed score (-2 to +2)": 0, "mean protection from cisplatin (shift in death) (%)": 11.8, "call": "inactive"}
{"gene symbol": "RAB3IL1", "two-siRNA summed score (-2 to +2)": 0, "mean protection from cisplatin (shift in death) (%)": -6.4, "call": "inactive"}
{"gene symbol": "KRABD2", "two-siRNA summed score (-2 to +2)": 0, "mean protection from cisplatin (shift in death) (%)": 2.6, "call": "inactive"}
{"gene symbol": "LOC441964", "two-siRNA summed score (-2 to +2)": 0, "mean protection from cisplatin (shift in death) (%)": 7.7, "call": "inactive"}
{"gene symbol": "CHMP3", "two-siRNA summed score (-2 to +2)": 0, "mean protection from cisplatin (shift in death) (%)": 2.3, "call": "inactive"}
{"gene symbol": "LOC441627", "two-siRNA summed score (-2 to +2)": 0, "mean protection from cisplatin (shift in death) (%)": 7, "call": "inactive"}

Next part, starting with the last 3 of the part before.
{"gene symbol": "LOC441964", "two-siRNA summed score (-2 to +2)": 0, "mean protection from cisplatin (shift in death) (%)": 7.7, "call": "inactive"}
{"gene symbol": "CHMP3", "two-siRNA summed score (-2 to +2)": 0, "mean protection from cisplatin (shift in death) (%)": 2.3, "call": "inactive"}
{"gene symbol": "LOC441627", "two-siRNA summed score (-2 to +2)": 0, "mean protection from cisplatin (shift in death) (%)": 7, "call": "inactive"}
{"gene symbol": "LOC401606", "two-siRNA summed score (-2 to +2)": 1, "mean protection from cisplatin (shift in death) (%)": 9, "call": "inactive"}
{"gene symbol": "UBE2J2", "two-siRNA summed score (-2 to +2)": 0, "mean protection from cisplatin (shift in death) (%)": 1.7, "call": "inactive"}
{"gene symbol": "PHIP", "two-siRNA summed score (-2 to +2)": 0, "mean protection from cisplatin (shift in death) (%)": 14.5, "call": "inactive"}
{"gene symbol": "LOC388171", "two-siRNA summed score (-2 to +2)": 1, "mean protection from cisplatin (shift in death) (%)": 26.7, "call": "inactive"}
{"gene symbol": "SF3B3", "two-siRNA summed score (-2 to +2)": 0, "mean protection from cisplatin (shift in death) (%)": 13.3, "call": "inactive"}
{"gene symbol": "ATF6", "two-siRNA summed score (-2 to +2)": 0, "mean protection from cisplatin (shift in death) (%)": -0.7, "call": "inactive"}
{"gene symbol": "LOC388622", "two-siRNA summed score (-2 to +2)": 0, "mean protection from cisplatin (shift in death) (%)": 14.8, "call": "inactive"}
{"gene symbol": "CABS1", "two-siRNA summed score (-2 to +2)": 0, "mean protection from cisplatin (shift in death) (%)": 11.5, "call": "inactive"}
{"gene symbol": "RPS6KA1", "two-siRNA summed score (-2 to +2)": 0, "mean protection from cisplatin (shift in death) (%)": 2.7, "call": "inactive"}
{"gene symbol": "TMEM128", "two-siRNA summed score (-2 to +2)": 0, "mean protection from cisplatin (shift in death) (%)": 11.5, "call": "inactive"}
{"gene symbol": "TAS2R31", "two-siRNA summed score (-2 to +2)": 0, "mean protection from cisplatin (shift in death) (%)": 2, "call": "inactive"}
{"gene symbol": "LOC441553", "two-siRNA summed score (-2 to +2)": 1, "mean protection from cisplatin (shift in death) (%)": 4.6, "call": "inactive"}
{"gene symbol": "PLA2G5", "two-siRNA summed score (-2 to +2)": 0, "mean protection from cisplatin (shift in death) (%)": 6.3, "call": "inactive"}
